## Drug screen on melanoma cell lines: apoptosis marker

Data from the primary screen of doi:10.1371/journal.pone.0140310, rounded.

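Human melanoma cells were exposed to a pair of drugs for 72 h in 1,536-well plates and read by automated microscopy after fixing and staining. Values are the share of nuclei positive for cleaved PARP as a percentage of the same share in the DMSO control: 100 is the control level, higher means more apoptosis. Concentrations were fixed for each drug; these are the higher of two levels. The file gives one value for each pair and line, without errors, so small differences may be noise. The marker varies much from line to line, for technical or biological reasons.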
Only some of the drugs and lines screened are listed, without regard to their results.

Drug key:
fingolimod: CCCCCCCCc1ccc(CCC(N)(CO)CO)cc1 at 10 µM
SNS-032: CC(C)(C)c1cnc(CSc2cnc(NC(=O)C3CCNCC3)s2)o1 at 0.05 µM
tanespimycin: C=CCNC1=C2C[C@@H](C)C[C@H](OC)[C@H](O)[C@@H](C)/C=C(\C)[C@H](OC(N)=O)[C@@H](OC)/C=C\C=C(/C)C(=O)NC(=CC1=O)C2=O at 0.01 µM
vatalanib: Clc1ccc(Nc2nnc(Cc3ccncc3)c3ccccc23)cc1 at 10 µM
PLX4720: CCCS(=O)(=O)Nc1ccc(F)c(C(=O)c2c[nH]c3ncc(Cl)cc23)c1F at 0.4 µM
SU6656: CN(C)S(=O)(=O)c1ccc2c(c1)/C(=C/c1cc3c([nH]1)CCCC3)C(=O)N2 at 2 µM
lenalidomide: Nc1cccc2c1CN(C1CCC(=O)NC1=O)C2=O (stereo not given) at 5 µM
sorafenib: CNC(=O)c1cc(Oc2ccc(NC(=O)Nc3ccc(Cl)c(C(F)(F)F)c3)cc2)ccn1 at 2 µM
IMD-0354: O=C(Nc1cc(C(F)(F)F)cc(C(F)(F)F)c1)c1cc(Cl)ccc1O at 0.08 µM
PF-04217903: OCCn1cc(-c2cnc3nnn(Cc4ccc5ncccc5c4)c3n2)cn1 at 5 µM
vismodegib: CS(=O)(=O)c1ccc(C(=O)Nc2ccc(Cl)c(-c3ccccn3)c2)c(Cl)c1 at 5 µM
decitabine: Nc1ncn([C@H]2C[C@H](O)[C@@H](CO)O2)c(=O)n1 at 0.5 µM
KU-0063794: COc1ccc(-c2ccc3c(N4CCOCC4)nc(N4C[C@@H](C)O[C@@H](C)C4)nc3n2)cc1CO at 0.1 µM

* SNS-032 + decitabine | UACC-62: 177; MeWo: 221; SK-MEL-30: 269; IPC-298: 59.8
* PLX4720 + fingolimod | UACC-62: 572; MeWo: 98.6; SK-MEL-30: 1150; IPC-298: 177
* IMD-0354 + fingolimod | UACC-62: 241; MeWo: 119; SK-MEL-30: 1690; IPC-298: 168
* sorafenib + PF-04217903 | UACC-62: 116; MeWo: 83.3; SK-MEL-30: 107; IPC-298: 75.2
* PLX4720 + tanespimycin | UACC-62: 229; MeWo: 86.0; SK-MEL-30: 162; IPC-298: 287
* KU-0063794 + IMD-0354 | UACC-62: 241; MeWo: 99.0; SK-MEL-30: 130; IPC-298: 159
* tanespimycin + sorafenib | UACC-62: 381; MeWo: 165; SK-MEL-30: 70.6; IPC-298: 205
* SU6656 + vismodegib | UACC-62: 89.6; MeWo: 148; SK-MEL-30: 73.5; IPC-298: 17.8
* vismodegib + tanespimycin | UACC-62: 156; MeWo: 110; SK-MEL-30: 122; IPC-298: 77.1
* IMD-0354 + PF-04217903 | UACC-62: 125; MeWo: 95.0; SK-MEL-30: 68.4; IPC-298: 139
* PF-04217903 + KU-0063794 | UACC-62: 110; MeWo: 98.8; SK-MEL-30: 169; IPC-298: 69.2
* vismodegib + decitabine | UACC-62: 174; MeWo: 173; SK-MEL-30: 117; IPC-298: 143
* lenalidomide + SNS-032 | UACC-62: 167; MeWo: 96.9; SK-MEL-30: 125; IPC-298: 47.5
* lenalidomide + PF-04217903 | UACC-62: 113; MeWo: 181; SK-MEL-30: 108; IPC-298: 75.7
* vismodegib + vatalanib | UACC-62: 218; MeWo: 95.2; SK-MEL-30: 76.3; IPC-298: 39.8
* SU6656 + PLX4720 | UACC-62: 253; MeWo: 144; SK-MEL-30: 152; IPC-298: 233
* PLX4720 + sorafenib | UACC-62: 286; MeWo: 91.7; SK-MEL-30: 55.7; IPC-298: 82.4
* SNS-032 + SU6656 | UACC-62: 186; MeWo: 123; SK-MEL-30: 143; IPC-298: 78.2
* PF-04217903 + SNS-032 | UACC-62: 140; MeWo: 211; SK-MEL-30: 137; IPC-298: 60.6
* fingolimod + SU6656 | UACC-62: 148; MeWo: 1210; SK-MEL-30: 1580; IPC-298: 451
* SNS-032 + fingolimod | UACC-62: 186; MeWo: 1190; SK-MEL-30: 2210; IPC-298: 397
* vatalanib + lenalidomide | UACC-62: 230; MeWo: 179; SK-MEL-30: 102; IPC-298: 220
* lenalidomide + decitabine | UACC-62: 204; MeWo: 99.8; SK-MEL-30: 48.6; IPC-298: 67.3
* PF-04217903 + PLX4720 | UACC-62: 186; MeWo: 101; SK-MEL-30: 48.7; IPC-298: 44.7
* vismodegib + sorafenib | UACC-62: 73.2; MeWo: 23.8; SK-MEL-30: 35.2; IPC-298: 119
* vismodegib + lenalidomide | UACC-62: 140; MeWo: 88.4; SK-MEL-30: 78.0; IPC-298: 171
* vatalanib + SU6656 | UACC-62: 223; MeWo: 126; SK-MEL-30: 123; IPC-298: 266